Results published in PMC8216282, “Structural basis for the dynamics of human methionyl-tRNA synthetase in multi-tRNA synthetase complexes” (Nucleic Acids Research, 2021).
Results are given in words; binding and its absence hold for the method and conditions named. For part of these data: Binding seen in cells or lysates may run through a third protein. Some results given as binding are weak or reduced against the parent protein; the word gives no strength. For part of these data: Tags and fused reporters may be left off the sequences shown.

Tests used:
[1] = target: T1, AIMP3 with the nanoluciferase large subunit at its N-terminus (LgBit-AIMP3) (human) (UniProt O43324); assay: split reporter; NanoBiT; LgBit on the N- or C-terminus of AIMP3, SmBit on the N- or C-terminus of MRS or on AIMP3; co-expressed in CHO-K1 cells; luminescence measured with cell-permeable substrate
T1 sequence: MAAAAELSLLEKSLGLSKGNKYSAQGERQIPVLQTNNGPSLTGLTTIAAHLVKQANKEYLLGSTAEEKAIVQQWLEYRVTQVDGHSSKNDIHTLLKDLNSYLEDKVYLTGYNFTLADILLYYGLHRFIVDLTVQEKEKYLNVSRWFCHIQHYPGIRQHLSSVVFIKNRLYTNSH

[2] = target: T2, AIMP3 with the nanoluciferase large subunit at its C-terminus (AIMP3-LgBit) (human) (UniProt O43324); assay: as above
T2 sequence: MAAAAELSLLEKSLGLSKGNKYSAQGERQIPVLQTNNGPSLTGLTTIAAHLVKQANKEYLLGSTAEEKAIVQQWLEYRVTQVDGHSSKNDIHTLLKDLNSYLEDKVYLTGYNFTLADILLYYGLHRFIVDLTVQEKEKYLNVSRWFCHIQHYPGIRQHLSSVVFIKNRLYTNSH

[3] = target: human MRS without the N-terminal GST domain (MRS 221-900) (human) (UniProt P56192); assay: SEC; Superdex 200 10/300 column, Tris-HCl pH 7.5, 150 mM NaCl; molecular weights from a calibration curve of standards; both purified
[4] = target: human MRS catalytic main body (MRS 221-834) (human) (UniProt P56192); assay: as above
[5] = target: T3, AIMP3 with the nanoluciferase large subunit at its N-terminus (LgBit-AIMP3) (human), O43324; assay: split reporter; NanoBiT; LgBit on the N- or C-terminus of AIMP3, SmBit on the N- or C-terminus of MRS or on AIMP3; co-expressed in CHO-K1 cells; luminescence measured with cell-permeable substrate; conditions: remark: other sources report otherwise
T3 chain: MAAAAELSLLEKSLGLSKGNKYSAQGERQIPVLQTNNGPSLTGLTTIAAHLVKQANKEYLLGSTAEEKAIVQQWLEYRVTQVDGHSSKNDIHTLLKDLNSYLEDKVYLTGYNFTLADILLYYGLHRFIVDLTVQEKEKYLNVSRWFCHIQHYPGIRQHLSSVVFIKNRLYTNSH

B1: MRS with the nanoluciferase small subunit at its C-terminus (MRS-SmBit) (enzyme, UniProt P56192 1-900)
chain: MRLFVSDGVPGCLPVLAAAGRARGRAEVLISTVGPEDCVVPFLTRPKVPVLQLDSGNYLFSTSAICRYFFLLSGWEQDDLTNQWLEWEATELQPALSAALYYLVVQGKKGEDVLGSVRRALTHIDHSLSRQNCPFLAGETESLADIVLWGALYPLLQDPAYLPEELSALHSWFQTLSTQEPCQRAAETVLKQQGVLALRPYLQKQPQPSPAEGRAVTNEPEEEELATLSEEEIAMAVTAWEKGLESLPPLRPQQNPVLPVAGERNVLITSALPYVNNVPHLGNIIGCVLSADVFARYSRLRQWNTLYLCGTDEYGTATETKALEEGLTPQEICDKYHIIHADIYRWFNISFDIFGRTTTPQQTKITQDIFQQLLKRGFVLQDTVEQLRCEHCARFLADRFVEGVCPFCGYEEARGDQCDKCGKLINAVELKKPQCKVCRSCPVVQSSQHLFLDLPKLEKRLEEWLGRTLPGSDWTPNAQFITRSWLRDGLKPRCITRDLKWGTPVPLEGFEDKVFYVWFDATIGYLSITANYTDQWERWWKNPEQVDLYQFMAKDNVPFHSLVFPCSALGAEDNYTLVSHLIATEYLNYEDGKFSKSRGVGVFGDMAQDTGIPADIWRFYLLYIRPEGQDSAFSWTDLLLKNNSELLNNLGNFINRAGMFVSKFFGGYVPEMVLTPDDQRLLAHVTLELQHYHQLLEKVRIRDALRSILTISRHGNQYIQVNEPWKRIKGSEADRQRAGTVTGLAVNIAALLSVMLQPYMPTVSATIQAQLQLPPPACSILLTNFLCTLPAGHQIGTVSPLFQKLENDQIESLRQRFGGGQAKTSPKPAVVETVTTAKPQQIQALMDEVTKQGNIVRELKAQKADKNEVAAEVAKLLDLKKQLAVAEGKPPEAPKGKKKK
[1]
  binding: binds
[2]
  binding: binds

B2: MRS with the nanoluciferase small subunit at its N-terminus (SmBit-MRS) (enzyme, human, UniProt P56192 1-900, looked up)
chain: MRLFVSDGVPGCLPVLAAAGRARGRAEVLISTVGPEDCVVPFLTRPKVPVLQLDSGNYLFSTSAICRYFFLLSGWEQDDLTNQWLEWEATELQPALSAALYYLVVQGKKGEDVLGSVRRALTHIDHSLSRQNCPFLAGETESLADIVLWGALYPLLQDPAYLPEELSALHSWFQTLSTQEPCQRAAETVLKQQGVLALRPYLQKQPQPSPAEGRAVTNEPEEEELATLSEEEIAMAVTAWEKGLESLPPLRPQQNPVLPVAGERNVLITSALPYVNNVPHLGNIIGCVLSADVFARYSRLRQWNTLYLCGTDEYGTATETKALEEGLTPQEICDKYHIIHADIYRWFNISFDIFGRTTTPQQTKITQDIFQQLLKRGFVLQDTVEQLRCEHCARFLADRFVEGVCPFCGYEEARGDQCDKCGKLINAVELKKPQCKVCRSCPVVQSSQHLFLDLPKLEKRLEEWLGRTLPGSDWTPNAQFITRSWLRDGLKPRCITRDLKWGTPVPLEGFEDKVFYVWFDATIGYLSITANYTDQWERWWKNPEQVDLYQFMAKDNVPFHSLVFPCSALGAEDNYTLVSHLIATEYLNYEDGKFSKSRGVGVFGDMAQDTGIPADIWRFYLLYIRPEGQDSAFSWTDLLLKNNSELLNNLGNFINRAGMFVSKFFGGYVPEMVLTPDDQRLLAHVTLELQHYHQLLEKVRIRDALRSILTISRHGNQYIQVNEPWKRIKGSEADRQRAGTVTGLAVNIAALLSVMLQPYMPTVSATIQAQLQLPPPACSILLTNFLCTLPAGHQIGTVSPLFQKLENDQIESLRQRFGGGQAKTSPKPAVVETVTTAKPQQIQALMDEVTKQGNIVRELKAQKADKNEVAAEVAKLLDLKKQLAVAEGKPPEAPKGKKKK
notes: methionyl-tRNA synthetase, cytosolic, human; source: CHO-K1 cells, transfected, in live cells; not shown: SmBit (NanoLuc small subunit), N-terminal, kept
[2]
  binding: binds

B3: human MRS without the N-terminal GST domain (MRS 221-900) (domain or fragment, UniProt P56192 221-900)
chain: EEEELATLSEEEIAMAVTAWEKGLESLPPLRPQQNPVLPVAGERNVLITSALPYVNNVPHLGNIIGCVLSADVFARYSRLRQWNTLYLCGTDEYGTATETKALEEGLTPQEICDKYHIIHADIYRWFNISFDIFGRTTTPQQTKITQDIFQQLLKRGFVLQDTVEQLRCEHCARFLADRFVEGVCPFCGYEEARGDQCDKCGKLINAVELKKPQCKVCRSCPVVQSSQHLFLDLPKLEKRLEEWLGRTLPGSDWTPNAQFITRSWLRDGLKPRCITRDLKWGTPVPLEGFEDKVFYVWFDATIGYLSITANYTDQWERWWKNPEQVDLYQFMAKDNVPFHSLVFPCSALGAEDNYTLVSHLIATEYLNYEDGKFSKSRGVGVFGDMAQDTGIPADIWRFYLLYIRPEGQDSAFSWTDLLLKNNSELLNNLGNFINRAGMFVSKFFGGYVPEMVLTPDDQRLLAHVTLELQHYHQLLEKVRIRDALRSILTISRHGNQYIQVNEPWKRIKGSEADRQRAGTVTGLAVNIAALLSVMLQPYMPTVSATIQAQLQLPPPACSILLTNFLCTLPAGHQIGTVSPLFQKLENDQIESLRQRFGGGQAKTSPKPAVVETVTTAKPQQIQALMDEVTKQGNIVRELKAQKADKNEVAAEVAKLLDLKKQLAVAEGKPPEAPKGKKKK
[3]
  binding: no binding

B4: human MRS catalytic main body (MRS 221-834) (domain or fragment, UniProt P56192 221-834)
chain: EEEELATLSEEEIAMAVTAWEKGLESLPPLRPQQNPVLPVAGERNVLITSALPYVNNVPHLGNIIGCVLSADVFARYSRLRQWNTLYLCGTDEYGTATETKALEEGLTPQEICDKYHIIHADIYRWFNISFDIFGRTTTPQQTKITQDIFQQLLKRGFVLQDTVEQLRCEHCARFLADRFVEGVCPFCGYEEARGDQCDKCGKLINAVELKKPQCKVCRSCPVVQSSQHLFLDLPKLEKRLEEWLGRTLPGSDWTPNAQFITRSWLRDGLKPRCITRDLKWGTPVPLEGFEDKVFYVWFDATIGYLSITANYTDQWERWWKNPEQVDLYQFMAKDNVPFHSLVFPCSALGAEDNYTLVSHLIATEYLNYEDGKFSKSRGVGVFGDMAQDTGIPADIWRFYLLYIRPEGQDSAFSWTDLLLKNNSELLNNLGNFINRAGMFVSKFFGGYVPEMVLTPDDQRLLAHVTLELQHYHQLLEKVRIRDALRSILTISRHGNQYIQVNEPWKRIKGSEADRQRAGTVTGLAVNIAALLSVMLQPYMPTVSATIQAQLQLPPPACSILLTNFLCTLPAGHQIGTVSPLFQKLENDQIESLRQRFGGGQAKTSPKPAVVETV
[4]
  binding: no binding

B5: AIMP3 (AARS-interacting multifunctional protein 3) (natural protein, human)
chain: MAAAAELSLLEKSLGLSKGNKYSAQGERQIPVLQTNNGPSLTGLTTIAAHLVKQANKEYLLGSTAEEKAIVQQWLEYRVTQVDGHSSKNDIHTLLKDLNSYLEDKVYLTGYNFTLADILLYYGLHRFIVDLTVQEKEKYLNVSRWFCHIQHYPGIRQHLSSVVFIKNRLYTNSH
notes: AIMP3, human; 'Genes for full-length human MRS (residues 1-900) and AIMP3' were cloned; the earlier structure (PDB 4bvx) used AIMP3 1-169; source: recombinant from pET30a or pQE80L plasmids, co-purified with MRS or MRS_(1-224)
[5]
  binding: no binding
